What all share (settings): 5 µM; treatment: days 7-14 after plating, readout day 21
In experiment [1] the test system is hPSC-derived cortical neurons (WA09). In words: nucleus area z-score vs screen plate; higher = larger nuclei (more mature).
Experiment [2] has the same test system. Kind of experiment: total neurite length per nucleus (MAP2) z-score; higher = more neurite growth.
Experiment [3] has the same test system. Kind of experiment: nucleus roundness z-score vs screen plate; higher = rounder nuclei (more mature).
Experiment [4] has the same test system. In words: KCl-induced FOS+/EGR-1+ double-positive nuclei fraction z-score (KCl minus unstimulated); higher = stronger activity-induced IEG response.

Structures can show the parent of a compound that is named as a salt. Some of the results follow. Most values lie at the level of the controls, where differences are scatter.

Consider eight compounds from the supplement of paper PMC11348887.

The compound `Cc1cc(OCc2nnc(SC3CCCC3)n2-c2cccnc2)ccc1-c1ccc(S(C)(=O)=O)cc1` came in with a nucleus area z-score in experiment [1] of -0.0588. The “total neurite length per nucleus (z-score)” value in experiment [2] was determined as 0.655. Besides, the nucleus roundness z-score in experiment [3] was -0.483. In addition, the “KCl-induced FOS+/EGR-1+ double-positive nuclei fraction z-score” value in experiment [4] turned out to be 0.0247.
In turn, `CN(C)CCOC(=O)COc1ccc(Cl)cc1` [Meclofenoxate (Centrophenoxine) HCl] yielded a nucleus area z-score in experiment [1] of 0.306. Besides, the “total neurite length per nucleus (z-score)” value in experiment [2] was determined as 0.102. Also, in experiment [3], the nucleus roundness z-score came out at 0.2. For the same compound, the “KCl-induced FOS+/EGR-1+ double-positive nuclei fraction z-score” value in experiment [4] was found to be 0.919.
For `O=S(=O)(O)CCCS(=O)(=O)O` [Eprodisate disodium], the nucleus area z-score in experiment [1] is 2.15. The “total neurite length per nucleus (z-score)” value in experiment [2] worked out at 0.399. In addition, the nucleus roundness z-score in experiment [3] was found to be 0.595. The “KCl-induced FOS+/EGR-1+ double-positive nuclei fraction z-score” value in experiment [4] was 1.6.
`COc1ccc2[nH]cc(CCNC(C)=O)c2c1` [Melatonin]: in experiment [1], the nucleus area z-score stood at 0.0196. In addition, the “total neurite length per nucleus (z-score)” value in experiment [2] is 0.19. Also, the nucleus roundness z-score in experiment [3] was -0.373. Besides, the “KCl-induced FOS+/EGR-1+ double-positive nuclei fraction z-score” value in experiment [4] is 1.58.
Take `Nc1cccc(-c2cc3c(Oc4cccc(O)c4)ncnc3[nH]2)c1`: in experiment [1], the nucleus area z-score was 0.605. Also, the “total neurite length per nucleus (z-score)” value in experiment [2] amounted to 0.371. In experiment [3], the nucleus roundness z-score turned out to be 0.811. Also, in experiment [4], the “KCl-induced FOS+/EGR-1+ double-positive nuclei fraction z-score” value turned out to be 1.67.
`O=C1C(=O)N(Cc2ccc(Cl)c(Cl)c2)c2ccccc21` [Apoptosis Activator 2] displayed a nucleus area z-score in experiment [1] of -0.636. The “total neurite length per nucleus (z-score)” value in experiment [2] stood at 1.3. In experiment [3], this compound returned a nucleus roundness z-score of -0.441. The “KCl-induced FOS+/EGR-1+ double-positive nuclei fraction z-score” value in experiment [4] is -0.0558.
`CCCC(CCC)C(=O)O[C@H]1C[C@H]2CC[C@@H](C1)[N+]2(C)C` [Anisotropine Methylbromide] displayed a nucleus area z-score in experiment [1] of -0.405. Further, the “total neurite length per nucleus (z-score)” value in experiment [2] was determined as 0.328. In experiment [3], the nucleus roundness z-score was -0.193. Further, the “KCl-induced FOS+/EGR-1+ double-positive nuclei fraction z-score” value in experiment [4] was -0.846.
In experiment [1], `O=C(O)c1cc(O)c(O)c(O)c1` [Gallic acid] showed a nucleus area z-score of 1.11. Besides, the “total neurite length per nucleus (z-score)” value in experiment [2] stood at 0.166. The compound further displayed a nucleus roundness z-score in experiment [3] of -0.00426. Besides, the “KCl-induced FOS+/EGR-1+ double-positive nuclei fraction z-score” value in experiment [4] was 0.0496.
